Experimental data taken from publication doi:10.1101/2023.12.23.573228.
No constants are given. Whether binding was seen depends on the method and setting. In cells and extracts the contact can be indirect. Some binding calls cover weakened binding; strength is not graded here.

By UniProt entry, the sequences of proteins in these tests, tags left out. Residues count along the entry.
UniProt Q92731: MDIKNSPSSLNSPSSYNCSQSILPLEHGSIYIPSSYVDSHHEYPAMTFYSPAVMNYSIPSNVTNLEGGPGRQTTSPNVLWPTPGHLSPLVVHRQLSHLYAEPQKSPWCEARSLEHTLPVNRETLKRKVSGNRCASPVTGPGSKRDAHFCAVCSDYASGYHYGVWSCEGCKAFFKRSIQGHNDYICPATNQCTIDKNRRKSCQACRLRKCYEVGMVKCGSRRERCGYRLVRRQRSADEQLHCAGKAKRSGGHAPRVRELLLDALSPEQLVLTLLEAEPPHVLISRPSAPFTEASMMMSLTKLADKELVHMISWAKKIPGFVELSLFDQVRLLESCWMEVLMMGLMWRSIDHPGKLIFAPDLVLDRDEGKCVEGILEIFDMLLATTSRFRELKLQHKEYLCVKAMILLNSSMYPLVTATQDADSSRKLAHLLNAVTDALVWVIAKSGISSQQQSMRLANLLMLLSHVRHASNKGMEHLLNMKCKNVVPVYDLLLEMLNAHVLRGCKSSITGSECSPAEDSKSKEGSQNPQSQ
UniProt P11021, residues 19-654: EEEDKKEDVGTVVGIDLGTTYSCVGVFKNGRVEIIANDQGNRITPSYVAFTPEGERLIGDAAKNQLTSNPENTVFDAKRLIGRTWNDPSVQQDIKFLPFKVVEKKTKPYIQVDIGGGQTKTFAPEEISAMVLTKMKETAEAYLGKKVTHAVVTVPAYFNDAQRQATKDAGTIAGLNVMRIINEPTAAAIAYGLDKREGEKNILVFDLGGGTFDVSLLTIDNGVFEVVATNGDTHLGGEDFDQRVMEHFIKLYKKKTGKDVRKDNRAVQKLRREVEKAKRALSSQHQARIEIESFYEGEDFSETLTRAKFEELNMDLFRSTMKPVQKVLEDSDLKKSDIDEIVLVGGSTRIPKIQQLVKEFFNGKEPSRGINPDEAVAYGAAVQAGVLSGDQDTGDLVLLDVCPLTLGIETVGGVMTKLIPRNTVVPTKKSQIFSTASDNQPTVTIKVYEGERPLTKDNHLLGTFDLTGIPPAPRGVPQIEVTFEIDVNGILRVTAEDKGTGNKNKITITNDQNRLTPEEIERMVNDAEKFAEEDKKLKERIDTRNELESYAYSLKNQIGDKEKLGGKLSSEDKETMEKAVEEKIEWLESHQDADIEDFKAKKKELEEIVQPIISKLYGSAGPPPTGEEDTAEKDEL
UniProt P05412: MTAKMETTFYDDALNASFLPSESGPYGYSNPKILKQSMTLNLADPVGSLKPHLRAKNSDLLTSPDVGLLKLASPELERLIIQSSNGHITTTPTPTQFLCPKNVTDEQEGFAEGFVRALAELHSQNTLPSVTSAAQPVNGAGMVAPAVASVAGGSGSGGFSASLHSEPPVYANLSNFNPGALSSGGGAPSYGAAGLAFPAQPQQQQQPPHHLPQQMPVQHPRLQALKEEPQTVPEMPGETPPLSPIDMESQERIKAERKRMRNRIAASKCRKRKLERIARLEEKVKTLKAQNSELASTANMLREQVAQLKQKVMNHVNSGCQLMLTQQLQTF

Target: human estrogen receptor beta (ERβ) (human) (UniProt Q92731)
Experiment: co-IP

binding	Molecule
binds	HSPA5 (from UniProt P11021 19-654)
binds	JUN (from UniProt P05412 1-331)
binds	CAT (enzyme, UniProt P04040 1-527) MADSRDPASDQMQHWKEQRAAQKADVLTTGAGNPVGDKLNVITVGPRGPLLVQDVVFTDEMAHFDRERIPERVVHAKGAGAFGYFEVTHDITKYSKAKVFEHIGKKTPIAVRFSTVAGESGSADTVRDPRGFAVKFYTEDGNWDLVGNNTPIFFIRDPILFPSFIHSQKRNPQTHLKDPDMVWDFWSLRPESLHQVSFLFSDRGIPDGHRHMNGYGSHTFKLVNANGEAVYCKFHYKTDQGIKNLSVEDAARLSQEDPDYGIRDLFNAIATGKYPSWTFYIQVMTFNQAETFPFNPFDLTKVWPHKDYPLIPVGKLVLNRNPVNYFAEVEQIAFDPSNMPPGIEASPDKMLQGRLFAYPDTHRHRLGPNYLHIPVNCPYRARVANYQRDGPMCMQDNQGGAPNYYPNSFGAPEQQPSALEHSIQYSGEVRRFNTANDDNVTQVRAFYVNVLNEEQRKRLCENIAGHLKDAQIFIQKKAVKNFTEVHPDYGSHIQALLDKYNAEKPKNAIHTFVQSGSHLAAREKANL
